Measured values published in paper PMC5730767.
No constants are given. Whether binding was seen depends on the method and setting. Binding seen in cells or lysates may run through a third protein. Some results given as binding are weak or reduced against the parent protein; the word gives no strength. Tags and fused reporters may be left off the sequences shown.

Chains of the proteins cited; added tags and fusions are not shown.
UniProt Q92538: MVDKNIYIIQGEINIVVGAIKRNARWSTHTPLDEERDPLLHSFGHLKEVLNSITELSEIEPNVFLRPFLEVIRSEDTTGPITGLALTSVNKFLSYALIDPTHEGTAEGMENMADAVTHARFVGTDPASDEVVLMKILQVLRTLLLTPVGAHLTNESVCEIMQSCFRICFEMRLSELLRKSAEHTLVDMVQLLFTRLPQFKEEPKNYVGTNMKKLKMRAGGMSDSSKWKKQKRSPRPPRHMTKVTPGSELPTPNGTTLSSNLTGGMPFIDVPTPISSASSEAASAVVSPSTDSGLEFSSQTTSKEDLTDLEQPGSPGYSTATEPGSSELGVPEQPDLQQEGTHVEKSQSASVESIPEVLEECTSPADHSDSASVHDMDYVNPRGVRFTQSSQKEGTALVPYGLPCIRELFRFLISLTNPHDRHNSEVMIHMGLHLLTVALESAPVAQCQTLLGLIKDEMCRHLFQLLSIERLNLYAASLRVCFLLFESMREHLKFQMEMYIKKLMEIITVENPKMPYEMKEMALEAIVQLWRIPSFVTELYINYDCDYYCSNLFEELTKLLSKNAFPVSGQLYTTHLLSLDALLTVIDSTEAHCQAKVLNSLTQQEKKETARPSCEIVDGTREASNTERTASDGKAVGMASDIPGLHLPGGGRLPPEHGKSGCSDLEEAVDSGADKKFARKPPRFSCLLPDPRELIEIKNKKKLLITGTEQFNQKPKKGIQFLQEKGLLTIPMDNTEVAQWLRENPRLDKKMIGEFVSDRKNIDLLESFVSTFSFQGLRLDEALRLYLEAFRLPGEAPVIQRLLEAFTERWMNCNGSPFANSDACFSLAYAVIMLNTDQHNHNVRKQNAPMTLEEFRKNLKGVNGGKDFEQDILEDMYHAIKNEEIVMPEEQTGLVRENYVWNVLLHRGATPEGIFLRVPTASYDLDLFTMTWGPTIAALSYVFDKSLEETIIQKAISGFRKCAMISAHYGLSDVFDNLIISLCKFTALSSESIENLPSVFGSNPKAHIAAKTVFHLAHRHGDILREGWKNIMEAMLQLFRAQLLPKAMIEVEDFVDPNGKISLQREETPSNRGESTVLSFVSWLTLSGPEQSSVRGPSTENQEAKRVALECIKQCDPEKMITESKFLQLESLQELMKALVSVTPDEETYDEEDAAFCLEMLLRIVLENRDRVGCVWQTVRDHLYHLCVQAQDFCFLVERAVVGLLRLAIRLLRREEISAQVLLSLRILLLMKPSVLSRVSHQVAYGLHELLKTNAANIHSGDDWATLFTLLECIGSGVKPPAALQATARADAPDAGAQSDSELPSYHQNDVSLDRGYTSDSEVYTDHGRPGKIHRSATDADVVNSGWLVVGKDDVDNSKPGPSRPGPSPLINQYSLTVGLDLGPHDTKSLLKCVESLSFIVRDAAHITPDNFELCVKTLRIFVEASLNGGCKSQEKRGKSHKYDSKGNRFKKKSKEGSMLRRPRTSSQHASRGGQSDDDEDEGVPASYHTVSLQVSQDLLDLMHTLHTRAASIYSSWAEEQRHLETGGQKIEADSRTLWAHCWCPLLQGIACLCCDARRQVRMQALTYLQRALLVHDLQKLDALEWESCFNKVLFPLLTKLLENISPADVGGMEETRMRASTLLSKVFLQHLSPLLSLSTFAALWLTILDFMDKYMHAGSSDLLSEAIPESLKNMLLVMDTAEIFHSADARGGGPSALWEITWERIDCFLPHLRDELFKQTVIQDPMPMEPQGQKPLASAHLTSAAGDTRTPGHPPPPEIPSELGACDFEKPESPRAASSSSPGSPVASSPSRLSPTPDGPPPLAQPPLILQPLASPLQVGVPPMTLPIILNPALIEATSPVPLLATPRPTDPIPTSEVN

Target: T1, N-terminally FLAG-tagged wt viperin (human) (UniProt Q8WXG1)
T1 sequence: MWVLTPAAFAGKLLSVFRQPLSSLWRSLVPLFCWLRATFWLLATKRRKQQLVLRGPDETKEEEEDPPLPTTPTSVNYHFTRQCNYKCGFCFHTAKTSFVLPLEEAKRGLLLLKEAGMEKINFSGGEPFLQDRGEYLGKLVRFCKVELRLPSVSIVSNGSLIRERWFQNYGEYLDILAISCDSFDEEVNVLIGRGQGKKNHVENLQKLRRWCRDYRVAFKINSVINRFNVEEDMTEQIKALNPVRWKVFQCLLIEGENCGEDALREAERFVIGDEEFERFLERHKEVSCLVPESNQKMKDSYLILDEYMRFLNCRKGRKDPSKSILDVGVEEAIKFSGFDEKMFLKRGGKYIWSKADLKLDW
Experiment: co-IP

Substance	binding
YFP-tagged GBF1 (YFP-GBF1-wt) (from UniProt Q92538 1-1860)	binds
Golgi brefeldin A-resistant guanine nucleotide exchange factor 1 (GBF1), endogenous in HEK293T cells (from UniProt Q92538 1-1860)	binds
